Data taken from patent publication US20250034219A1 (MOZZA FOODS, published 2025).
No constants are given. Whether binding was seen depends on the method and setting. Some entries that bind do so weakly or less than the wild type. Where a sequence is shown, tags or fusion partners need not be part of it.

Molecular target: recombinant B. taurus κ-casein expressed from pMOZ1066 (GY1 signal peptide, κ-casein, FLAG tag, 6 histidine tag, HDEL peptide) (B. taurus)
Experiment: TEM with FLAG immunogold labelling of soy embryos; micelle of αS1, β and κ casein in vivo

B1: recombinant B. taurus αS1-casein expressed from pMOZ1066 (GY1 signal peptide, αS1-casein, FLAG tag, 6 histidine tag, HDEL peptide) (protein)
chain: RPKHPIKHQGLPQEVLNENLLRFFVAPFPEVFGKEKVNELSKDIGSESTEDQAMEDIKQMEAESISSSEEIVPNSVEQKHIQKEDVPSERYLGYLEQLLRLKKYKVPQLEIVPNSAEERLHSMKEGIHAQQKEPMIGVNQELAYFYPELFRQFYQLDAYPSGAWYYVPLGTQYTDAPSFSDIPNPIGSENSEKTTMPLWDYKDDDDKHHHHHHHDEL
- binding: binds
